This assay is described as follows: qHTS Assay for Modulators of Lamin A Splicing. The settings on record: HeLa LMNA splicing GFP/RFP minigene ratio, 48 h. Put shortly: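 S3 HeLa cells stably expressing lamin A-EGFP splicing minigene plus DsRed2, 600 cells/well, 48 h compound exposure at 37C. Laser-scanning cytometry; analysed as GFP (500-530 nm)/RFP (575-640 nm) total intensity ratio; 0.5% DMSO vehicle.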

Setting [1] is: measured here: GFP splicing reporter channel.
[2] abbreviates: measured here: RFP viability control channel.

This is one part of the list. The main result of the screen is listed elsewhere. These columns were measured beside it and carry no call. Compounds called inactive in the main read-out are mostly missing here. Potencies come from curve fits of mixed quality, noted in brackets.

As a reminder, the AC50 is the concentration at which the activity in the assay is half-maximal. Consider `Clc1cccc(-n2ncc3c(NCCCN4CCOCC4)ncnc32)c1`, for which, under setting [1], the half-maximal activity concentration (AC50) is 0.00447 µM [falling, full curve, poor fit].
As for `CCCOC(=O)c1ccc(NC(=O)c2ccccc2[N+](=O)[O-])cc1`, the AC50 under setting [2] was 0.0251 µM [falling, full curve, poor fit].
Turning to `Nc1ccc(C(=O)O)cc1[N+](=O)[O-]`, the half-maximal activity concentration (AC50) under setting [1] is 15.8 µM [falling, single point] and the AC50 under setting [2] was 11.2 µM [falling, partial curve, poor fit].
Consider `CCc1ccccc1N(C(=O)CCC(=O)Nc1cc(C)on1)C(C(=O)NC1CCCC1)c1ccco1` (stereo not given), for which, under setting [2], the concentration at half-maximal activity (AC50) was 25.1 µM [rising, single point].
Consider `COc1ccc(-c2noc(CN(C(=O)c3c(-c4ccccc4Cl)noc3C)C(C)C)n2)cc1`, for which the half-maximal activity concentration (AC50) under setting [2] was 14.1 µM [rising, single point].
Turning to `COc1cc(-c2ccno2)ccc1S(=O)(=O)N1CCN(c2ccccc2)CC1`, the AC50 under setting [1] was 0.282 µM [rising, partial curve].
With `Cc1ccc2nc(-c3ccncc3)cc(C(=O)NCCc3ccc(F)cc3)c2c1`, the AC50 reads like this: under setting [1], 3.55 µM [falling, single point]; under setting [2], 17.8 µM [falling, single point].
In the case of `CN(C)c1ccc(CNC(=O)C2CCN(S(=O)(=O)c3ccc4[nH]c(=O)ccc4c3)CC2)cc1`, under setting [1], the half-maximal activity concentration (AC50) is 0.178 µM [falling, full curve, poor fit].
For `Clc1ccc(/C=C/c2nc3ccccc3[nH]2)c(Cl)c1`, the AC50 was 20 µM [falling, single point] under setting [1] and 11.2 µM [falling, partial curve] under setting [2].
On to `CNS(=O)(=O)c1cnccc1N1CCN(c2cccc(Cl)c2)CC1`, for which the concentration at half-maximal activity (AC50) reads like this: under setting [1], 12.6 µM [rising, partial curve]; under setting [2], 31.6 µM [rising, single point].
On to `O=[N+]([O-])c1ccccc1/C=C/C=N/Nc1nc(N2CCCCC2)nc(N2CCCCC2)n1`, for which the AC50 under setting [2] was 0.282 µM [rising, partial curve].
Still for that read-out and setting: for `Cc1cc(N2CCC(C)CC2)nc(-n2nc(C)cc2C)n1` the value was 10 µM [rising, partial curve, poor fit]; for `COc1ccc(C(=O)N(c2ccc(C)cc2)S(=O)(=O)c2ccc(C)cc2)cc1`, 14.1 µM [rising, single point].
Same read-out and setting: for `O=C(CSc1nc2ccccc2c(=O)n1CCCN1CCOCC1)Nc1cccc(S(=O)(=O)N2CCCCCC2)c1` the value was 25.1 µM [rising, single point]; for `COc1cc(C(=O)Nc2cc(-c3ccccc3)[nH]n2)cc(OC)c1OC`, 12.6 µM [rising, partial curve]; for `CS(=O)(=O)Nc1cccc(C2=NN(S(C)(=O)=O)C(c3ccccc3)C2)c1` (stereo not given), 1.41 µM [falling, partial curve, poor fit].
Turning to `CCCCNS(=O)(=O)c1ccc(S(=O)(=O)NCc2ccncc2)cc1`, the concentration at half-maximal activity (AC50) runs as follows: under setting [1], 10 µM [rising, partial curve]; under setting [2], 7.94 µM [rising, partial curve].
As for `CCOc1ccc(NC(=O)COc2nsnc2N2CCCCC2)cc1`, the AC50 runs as follows: under setting [1], 35.5 µM [rising, single point]; under setting [2], 35.5 µM [rising, single point].
Turning to `COc1ccc(/C=C2\C(=O)NC(=S)N2C(=O)c2ccc(C)cc2)cc1`, the AC50 under setting [2] is 22.4 µM [rising, single point].
Still for that read-out and setting: for `COc1ccc(Nc2nc(-c3cccs3)nc3ccccc23)cc1` the value was 35.5 µM [rising, single point].
For the compound `O=C(CSc1ccc(-c2nc3ccccc3[nH]2)cn1)N1CCN(C(=O)c2ccco2)CC1`, the half-maximal activity concentration (AC50) under setting [2] was 10 µM [rising, partial curve].
For the compound `O=S(=O)(c1ccc(S(=O)(=O)N2CCOCC2)cc1)N1CCCC1`, the AC50 under setting [1] is 35.5 µM [falling, single point].
Regarding `Cc1nc(Nc2ccccc2)sc1-c1ccccc1`, under setting [2], the AC50 is 0.00447 µM [rising, full curve, poor fit].
`O=C(/C=C/c1ccc(Cl)cc1)N1CCN(c2ccccc2[N+](=O)[O-])CC1`: the half-maximal activity concentration (AC50) under setting [2] was 31.6 µM [rising, single point].
Turning to `COC(=O)N/N=C/c1cn(Cc2ccccc2Cl)c2ccccc12`, the AC50 under setting [1] is 12.6 µM [rising, single point] and the AC50 under setting [2] is 12.6 µM [rising, partial curve].
Consider `C=C(C)CNC(=S)N/N=C/c1ccc(NC(C)=O)cc1`, for which the concentration at half-maximal activity (AC50) is 0.0316 µM [falling, full curve, poor fit] under setting [1] and 0.00316 µM [falling, full curve, poor fit] under setting [2].
`Cc1nn(C2CCS(=O)(=O)C2)c(Cl)c1/C=C/C(=O)OCC(=O)c1cc(C)n(-c2ccc(F)cc2)c1C` (stereo not given): the AC50 is 8.91 µM [rising, partial curve] under setting [1] and 12.6 µM [rising, partial curve] under setting [2].
Turning to `COc1ccc(CCNC(=O)Cn2c(-c3ccc(F)cc3)cc(C(C)=O)c2C)cc1OC`, under setting [1], the AC50 was 3.55 µM [rising, partial curve, poor fit].
`CCCCOc1cccc(-c2cc(C(=O)NNC(=S)NCC)c3ccccc3n2)c1`: the AC50 under setting [1] was 20 µM [rising, single point] and the concentration at half-maximal activity (AC50) under setting [2] is 17.8 µM [rising, single point].
As for `c1sc2[n+](c1C13CC4CC(CC(C4)C1)C3)CCS2`, the AC50 is 11.2 µM [rising, partial curve] under setting [1] and 20 µM [rising, partial curve] under setting [2].
As to `O=c1c(-c2cc(F)cc(F)c2)nc2cncnc2n1Cc1ccccc1`, the AC50 under setting [1] is 0.0631 µM [falling, full curve, poor fit] and the AC50 under setting [2] is 2.24 µM [falling, partial curve, poor fit].
`CSC1=N/C(=C\c2ccc(F)cc2)C(=O)S1`: the AC50 under setting [1] was 7.94 µM [falling, partial curve, poor fit].
In the case of `CCC/C(=N\NC(=O)c1ccc(OC)c(OC)c1)c1ccccc1`, the AC50 under setting [1] was 0.01 µM [falling, full curve, poor fit].
For `CCOP(=O)(OCC)C(Nc1cccc(C(F)(F)F)c1)c1ccc(F)cc1` (stereo not given), the AC50 under setting [2] is 31.6 µM [rising, single point].
As to `CC1CCCC(C)N1C(=O)Cn1c(SCC(=O)NCc2ccc3c(c2)OCO3)nc2ccccc21` (stereo not given), the half-maximal activity concentration (AC50) under setting [1] is 15.8 µM [rising, partial curve, poor fit].
Regarding `O=C(Nc1ccn(Cc2ccccc2F)n1)c1ccc(COc2ccccc2Cl)cc1`, the half-maximal activity concentration (AC50) under setting [1] is 10 µM [rising, partial curve] and the half-maximal activity concentration (AC50) under setting [2] was 10 µM [rising, partial curve].
With `Cc1ccc(S(=O)(=O)/N=C(\CCl)N2CCOCC2)cc1`, the AC50 under setting [2] is 35.5 µM [rising, single point].
Turning to `O=C(Cn1c(-c2cscn2)nc2ccccc21)Nc1ccc(Cl)cc1`, under setting [2], the AC50 is 15.8 µM [rising, partial curve].
For `Cc1noc(C)c1-c1ccc2ncnc(NCc3cccnc3)c2c1`, the AC50 under setting [1] is 2.51 µM [falling, full curve].
In the case of `Cc1nc(NC2=NCN(CCCN3CCOCC3)CN2)nc2c(C)cccc12`, the AC50 under setting [2] was 35.5 µM [rising, single point].
Take `Cc1cc2cc(CNC(=O)c3cc4ccccc4o3)ccc2n1C`: the AC50 by setting is: under setting [1], 3.55 µM [falling, single point]; under setting [2], 3.55 µM [falling, partial curve].
For `CCOc1cc(C2C(C(=O)Nc3ccccc3)=C(C)Nc3ncnn32)cc(Br)c1O` (stereo not given), the half-maximal activity concentration (AC50) under setting [1] was 0.00447 µM [falling, full curve, poor fit].
Same read-out and setting: under `COc1ccc(NC(=O)CN2C(=O)CSc3ccc(S(=O)(=O)N(C)C)cc32)cc1OC` stands 1.58 µM [rising, full curve, poor fit].
For `O=C(CN1CCN(c2ccccc2O)CC1)NCCCc1ccccc1`, the half-maximal activity concentration (AC50) by setting is: under setting [1], 0.316 µM [rising, partial curve]; under setting [2], 0.891 µM [rising, single point].
`Cc1nc([N+](=O)[O-])c(Br)n1CC(=O)c1ccc(Cl)cc1`: the half-maximal activity concentration (AC50) by setting is: under setting [1], 20 µM [falling, single point]; under setting [2], 35.5 µM [falling, single point].
`CC1=NOC(=O)/C1=C\c1ccc(-c2ccc(Cl)cc2Cl)o1`: the AC50 is 35.5 µM [falling, single point] under setting [1] and 28.2 µM [falling, single point] under setting [2].
For `CC(=O)Nc1ccc(OC[C@@H](O)CNC(C)C)cc1`, the AC50 is, setting by setting: under setting [1], 0.000891 µM [falling, full curve, poor fit]; under setting [2], 0.000891 µM [falling, full curve, poor fit].
Regarding `CCOC(=O)c1c(C)c(C(=O)Nc2cc(OC)ccc2OC)c(C)n1CC`, the AC50 under setting [2] was 35.5 µM [rising, single point].
As to `Cc1nc(COC(=O)c2cc(O)c3ccccc3c2O)cs1`, the AC50 under setting [1] was 0.316 µM [falling, full curve, poor fit].
For `Cc1ccc(NC(=S)NCCC(c2ccccc2)c2ccccc2)c(C)c1`, the AC50 under setting [2] was 31.6 µM [rising, single point].
Turning to `C=C(C)CNC(=S)NNC(=O)CCn1c2ccccc2c2ccccc21`, the AC50 under setting [1] was 17.8 µM [rising, partial curve] and the half-maximal activity concentration (AC50) under setting [2] was 35.5 µM [rising, single point].
With `C=CCc1ccc(OCC(O)COc2ccc(CC=C)cc2OC)c(OC)c1`, the AC50 by setting is: under setting [1], 20 µM [falling, partial curve, poor fit]; under setting [2], 20 µM [falling, partial curve, poor fit].
On to `CCCCN(C(=O)Nc1ccc(Cl)cc1)C1CCN(C(C)=O)CC1`, for which the AC50 under setting [2] was 0.0282 µM [falling, full curve].
On the same count and under the same terms, for `CC(=O)Nc1ccccc1OCC(=O)NC(C)c1ccccc1` (stereo not given) the value was 7.94 µM [rising, partial curve, poor fit]; for `O=C(CN1CC(=O)Oc2ccccc21)OCC(=O)c1ccc(F)cc1`, 0.0794 µM [rising, full curve].

For the origin of these results see PubChem BioAssay AID1487 (National Center for Advancing Translational Sciences (NCATS), 2009).
